# Measurements reported in PubChem BioAssay AID504444 (National Center for Advancing Translational Sciences (NCATS), 2011).
# About 7,500 (2.1%) of roughly 360,000 compounds were called active. Inconclusive means that the source gave no clear call. Such entries were picked first, then a sample of the others. Calls follow the shape of the dose curve; as a rule, active = well fitted inhibition curve with a large enough effect; inconclusive = small, poorly fitted or top-dose-only effect, or effect the other way; inactive = flat fitted curve, though single readings scatter. Potencies beside an inconclusive call are fits to weak or partial responses and may not hold up.
# Experiment: Nrf2 qHTS screen for inhibitors; also: nearly all actives have a fitted effect of over 60% in size
# Conditions: A549 ARE-Fluc reporter, luciferase luminescence, 18-24 h; series mostly up to 46 µM
# How it was run: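 Two sequential reads on A549 ARE_Fluc cells exposed to compound for 18-24 h: a CellTiter-Fluor fluorescence read for viability, then a luciferase luminescence read for Nrf2/ARE activity.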
# Potency is read from the fitted curve at half-maximal effect.
row,Structure (SMILES),Potency
1,Cc1cccc(CSc2nc(-c3cccc(C)c3)nc3c2Cc2c(CO)cnc(C)c2O3)c1,"inconclusive: 29.1 µM [activator, single point]"
2,COc1ccc(C(=O)N/C(=C\c2cccs2)c2nc3ccccc3[nH]2)cc1OC,"inconclusive: 3.26 µM [activator, partial curve, poor fit]"
3,CCN(CC)S(=O)(=O)c1ccc2c(c1)nc(CCC(=O)Nc1ccccc1Cc1ccccc1)n2CC,"inconclusive: 29.1 µM [falling, single point]"
4,CSc1ccccc1NC(=O)CN(C)C(=O)C(C)SCc1nc2sc(C)c(C)c2c(=O)[nH]1 (stereo not given),"inconclusive: 5.8 µM [falling, full curve, poor fit]"
5,O=c1[nH]c2ccccc2nc1-c1ccccc1,"inconclusive: 18.4 µM [activator, partial curve]"
6,CCOc1cc(NC(=S)Nc2cccc(C)c2)c(OCC)cc1NC(=O)CC(C)C,"inconclusive: 29.1 µM [falling, single point]"
7,Fc1ccc(Nc2nc(-c3ccncc3)nc3ccccc23)cc1,"inconclusive: 0.058 µM [falling, full curve, poor fit]"
8,O=C1CCC[C@@H]2C[C@@]3(C[C@@H]4CCN1[C@H]24)Nc1cc(Cl)c(Cl)cc1NC3=NCc1ccccc1,"inconclusive: 29.1 µM [falling, single point]"
9,COc1ccc(C(=O)NCC2CCCO2)cc1 (stereo not given),"inconclusive: 0.013 µM [activator, full curve]"
10,Cc1ccc(NC(=O)CSCc2ccc(F)cc2)cc1,"inconclusive: 0.92 µM [activator, full curve]"
11,CCn1cc(CNC(=O)c2ccc3nc(Cc4ccc(OC)cc4)oc3c2)cn1,"inconclusive: 16.4 µM [falling, partial curve]"
12,CC(C)(C)OC(=O)NCCCC[C@H](NC(=O)c1[nH]cnc1C(=O)Nc1ccccc1)C(=O)OC(C)(C)C,"inconclusive: 29.1 µM [falling, single point]"
13,COc1ccc(NS(=O)(=O)c2ccc(F)c(F)c2F)cc1S(=O)(=O)N1CCOCC1,"inconclusive: 0.146 µM [falling, full curve, poor fit]"
14,CC(=O)N1CC(C)Sc2ccc(S(=O)(=O)NC(C)c3ccccc3)cc21 (stereo not given),"inconclusive: 16.4 µM [falling, partial curve, poor fit]"
15,Cc1ccc(NC(=O)c2sc3nc(C)cc(C)c3c2N)cc1,"inconclusive: 20.6 µM [activator, partial curve]"
16,CCOc1ccc(CN2CCN(Cc3cnc(N4CCOCC4)s3)CC2CCO)cc1 (stereo not given),"inconclusive: 16.4 µM [falling, partial curve, poor fit]"
17,O=C(Nc1ccc2c(c1)CCC2)c1cc(S(=O)(=O)Nc2ccc(F)cc2)c(Cl)cc1Cl,"inconclusive: 29.1 µM [falling, single point]"
18,O=[N+]([O-])c1ccc2nc(SCc3ccccc3Cl)sc2c1,"inconclusive: 16.4 µM [falling, single point]"
19,CC(=O)Oc1ccccc1C(=O)Nc1ccccc1,inactive
20,Cc1ccccc1C(=O)NC1CCN(Cc2ccccc2)CC1,inactive

row,Structure (SMILES),Potency
1,CC1CC(C)CN(C(=O)c2cccc(NC(=O)CC3SC(N4CCCCC4)=NC3=O)c2)C1 (stereo not given),"inconclusive: 29.1 µM [falling, single point]"
2,COC(=O)Cc1ccc(N(Cc2ccccc2F)S(=O)(=O)c2ccc(Cl)cc2)cc1,"inconclusive: 13 µM [falling, partial curve, poor fit]"
3,Cc1ccc(Cl)cc1N1CCN(C(=O)c2cc(S(=O)(=O)N3CCCC3)c[nH]2)CC1,inactive
4,Cc1cc(C)nc(Nc2ccc(C)c([N+](=O)[O-])c2)n1,"inconclusive: 29.1 µM [activator, single point]"
5,COc1ccc(-c2cc(C(=O)OCC(=O)N(C)C3CCS(=O)(=O)C3)c3ccccc3n2)cc1OC (stereo not given),"inconclusive: 32.6 µM [falling, single point]"
6,CCN1C(=O)c2ccccc2S(=O)c2ccc(C(=O)N3CCCCCC3)cc21 (stereo not given),"inconclusive: 29.1 µM [falling, single point]"
7,Fc1cc(F)cc(Nc2nc(NC3CCCC3)nc(C3CO3)n2)c1 (stereo not given),inactive
8,CCOC(=O)CN(C(=O)c1snc(C(N)=O)c1N)C(C(=O)NC1CCCCC1)c1ccc(F)cc1 (stereo not given),"inconclusive: 36.6 µM [falling, partial curve, poor fit]"
9,COc1cc(Cl)c(C)cc1NC(=S)NN,"inconclusive: 8.2 µM [falling, partial curve, poor fit]"
10,Cc1ccc(CN2CCSc3ccc(C(=O)Nc4ccc(C)cc4)cc32)cc1,"inconclusive: 5.8 µM [activator, partial curve]"
11,CCN(CC)S(=O)(=O)c1cc(NC(=O)Cn2cnc3ccccc3c2=O)ccc1C,"inconclusive: 5.8 µM [falling, full curve]"
12,COc1ccc(NS(=O)(=O)c2ccc(Br)s2)cc1OC,"inconclusive: 20.6 µM [falling, single point]"
13,Cc1ccc2nc(N/C(=N/S(=O)(=O)c3ccc(F)cc3F)c3ccccc3)sc2c1,"inconclusive: 9.2 µM [activator, partial curve]"
14,CCCC(=O)OCCNc1cc(SCc2ccco2)c2nonc2c1[N+](=O)[O-],inactive
15,O=C(CSc1nnc(-c2ccc(O)cc2)o1)Nc1cccc(O)c1,"inconclusive: 16.4 µM [falling, partial curve]"
16,COc1ccc(C(=O)N/N=C/c2c(CO)cnc(C)c2O)cc1,"inconclusive: 29.1 µM [falling, single point]"
17,Cc1ccccc1OCC(=O)Nc1ccc(S(=O)(=O)N2CCCC2)cc1,"inconclusive: 14.6 µM [falling, partial curve, poor fit]"
18,Cc1cc(C(=O)Nc2ccc(Br)cn2)sc1C,"inconclusive: 8.2 µM [activator, partial curve]"
19,Nc1cccc2cc(-c3ccccc3)oc12,"inconclusive: 18.4 µM [activator, single point]"
20,COc1cc(C(CCN2CCN(c3ccccc3)CC2)c2c(OC)cc(OC)c3c(C)cc(=O)oc23)cc(OC)c1OC (stereo not given),"inconclusive: 18.4 µM [falling, single point]"

# Random excerpt: 3 entries already listed
row,Structure (SMILES),Potency
14,CCCC(=O)OCCNc1cc(SCc2ccco2)c2nonc2c1[N+](=O)[O-],inactive
19,Nc1cccc2cc(-c3ccccc3)oc12,"inconclusive: 18.4 µM [activator, single point]"
13,Cc1ccc2nc(N/C(=N/S(=O)(=O)c3ccc(F)cc3F)c3ccccc3)sc2c1,"inconclusive: 9.2 µM [activator, partial curve]"
